The target in this assay is T1, cI (Homo sapiens, UniProt O75251+O75306+P03886).
T1 construct: endogenous in cells; host or cells: LUHMES cells, digitonin-permeabilized
Type of assay: cell-based. As to conditions: LUHMES. The protocol:
To investigate individual respiratory chain complexes, a method developed earlier and described extensively was used (Delp et al. [2019]). In brief, LUHMES cells were seeded at a density of 205,000 cells/cm^2 in PM into Agilent Seahorse XFe24-well plates. […] To reduce data variability, internal normalization of the OCR of each well was done relative to its value after equilibration.

Amino acid sequences for entries named in this document (tags omitted). Residues count along the entry.
UniProt O75251, 39-213: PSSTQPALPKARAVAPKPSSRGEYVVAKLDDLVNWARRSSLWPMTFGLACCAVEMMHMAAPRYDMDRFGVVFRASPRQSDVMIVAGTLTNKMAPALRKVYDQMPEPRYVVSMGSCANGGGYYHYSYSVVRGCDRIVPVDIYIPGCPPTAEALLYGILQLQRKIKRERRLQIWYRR
UniProt O75306, 34-463: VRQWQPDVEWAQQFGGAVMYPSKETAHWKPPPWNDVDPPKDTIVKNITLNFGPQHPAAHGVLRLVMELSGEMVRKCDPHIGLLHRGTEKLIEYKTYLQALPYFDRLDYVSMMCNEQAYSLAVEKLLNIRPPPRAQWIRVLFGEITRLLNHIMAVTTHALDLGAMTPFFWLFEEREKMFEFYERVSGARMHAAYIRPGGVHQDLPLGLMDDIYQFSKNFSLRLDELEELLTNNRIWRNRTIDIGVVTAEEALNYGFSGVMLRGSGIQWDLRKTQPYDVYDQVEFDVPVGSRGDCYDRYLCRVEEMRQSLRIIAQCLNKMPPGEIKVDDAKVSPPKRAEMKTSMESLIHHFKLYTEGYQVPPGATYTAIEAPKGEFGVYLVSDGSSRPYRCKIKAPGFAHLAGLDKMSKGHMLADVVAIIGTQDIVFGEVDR
UniProt P03886, whole entry: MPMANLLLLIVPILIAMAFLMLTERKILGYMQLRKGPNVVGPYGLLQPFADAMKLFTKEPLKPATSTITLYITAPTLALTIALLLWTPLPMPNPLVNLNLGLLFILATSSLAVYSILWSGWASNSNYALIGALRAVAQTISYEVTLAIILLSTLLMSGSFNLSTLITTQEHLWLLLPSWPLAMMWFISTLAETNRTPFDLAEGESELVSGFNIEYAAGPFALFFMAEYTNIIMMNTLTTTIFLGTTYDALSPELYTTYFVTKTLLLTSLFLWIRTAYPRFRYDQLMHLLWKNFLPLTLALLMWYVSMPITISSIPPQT

Where only a bound is given, the exact number is not on record here.

Turning to `C=C(C)[C@H]1Cc2c(ccc3c2O[C@@H]2COc4cc(OC)c(OC)cc4[C@@H]2C3=O)O1` [Rotenone], the “cI inhibition at which neurite damage occurred” value is given as under 50%.

Values taken from paper PMC7870626, “Neurotoxicity and underlying cellular changes of 21 mitochondrial respiratory chain inhibitors” (Archives of Toxicology, 2021).
